Columns and labels:
[1] = general procedure: Fmoc solid-phase peptide synthesis; 2-chlorotrityl chloride resin (0.89 mmol/g); HATU/DIPEA (solution couplings)
[2] = Fmoc solid-phase peptide synthesis; 2-chlorotrityl chloride resin; HATU/DIPEA (solution couplings); settings: whole synthesis, scale 1.000 g resin (0.89 mmol/g), trifluoroacetate
[3] = general procedure: Fmoc solid-phase peptide synthesis; 2-chlorotrityl chloride resin; HATU/DIPEA (solution couplings); settings: whole synthesis, trifluoroacetate
peptide synthesis = settings: conjugation step, trifluoroacetate
[4] = late stage modification step, trifluoroacetate
[5] = scale 1.000 g resin (0.89 mmol/g)

Ac-Ala-Lys[Tyr(tBu)-Ala-(Fmoc)Ala]-2-methylethylamino trifluoroacetate
step yield [1, 4]: 16% yield

Ac-Ala-Lys[Tyr(tBu)-Ala-Ala-Fmoc]
step yield ([1]; coupling step, trifluoroacetate): 81% yield

Ac-Ala-Lys[Tyr-Ala-Ala]-(2-(pNP-thionocarbamate)methyl)ethylamino trifluoroacetate
step yield ([1]; late stage modification step, over three steps from 34, trifluoroacetate): 67% yield over three steps

Ac-Lys[Phe-Ala-Ala]-(2-(pNP-thionocarbamate)methyl)ethylamino trifluoroacetate
step yield ([1]; coupling step, from 9, trifluoroacetate): 46% yield

Ac-Lys[Tyr(tBu)-Ala-(Fmoc)Ala]
crude mass [2]: 387 mg | crude yield [3, 5]: 56% yield

Ac-Lys[Tyr(tBu)-Ala-(Fmoc)Ala]-2-methylethylamino trifluoroacetate
step yield [1, 4]: 31% yield

Ac-Lys[Tyr(tBu)-Ala-Ala-(Boc)Ala]
crude mass [2]: 540 mg | crude yield [3, 5]: 75% yield

Ac-Lys[Tyr(tBu)-Ala-Ala-(Boc)Ala]-2-methylethylamino trifluoroacetate
step yield [1, 4]: 53% yield

Ac-Lys[Tyr(tBu)-Ala-Ala-(Fmoc)Ala]
crude yield ([3]; scale of the general procedure 1.000 g resin): 51% yield | crude mass [3]: 383 mg

Ac-Lys[Tyr(tBu)-Ala-Ala-(Fmoc)Ala]-2-methylethylamino trifluoroacetate
step yield ([1]; late stage modification step, over two steps from 15, trifluoroacetate): 11% yield over two steps

Ac-Lys[Tyr(tBu)-Ala-Ala-Ala]-(2-(pNP-thionocarbamate)methyl)ethylamino trifluoroacetate
step yield [1, 4]: 48% yield

Ac-Lys[Tyr-Ala-Ala-Ala]-(2-(oxycodone-thionocarbamate)methyl)ethylamino ditrifluoroacetate
conjugation yield (peptide synthesis): 56% yield

Ac-Lys[Tyr-Ala-Ala-Ala]-(2-(pNP-thionocarbamate)methyl)ethylamino trifluoroacetate
step yield [1, 4]: 50% yield

Ac-Lys[Tyr-Ala-Ala]-(2-(pNP-thionocarbamate)methyl)ethylamino trifluoroacetate
step yield ([1]; late stage modification step, from 28, trifluoroacetate): 54% yield

Ala-Ala-Ala-Tyr trifluo
crude mass ([1]; whole synthesis, TFA salt): 286 mg | crude yield ([1]; whole synthesis, scale of the general procedure 1.000 g resin, trifluoroacetate): 77% yield

Ala-Ala-Lys[(Ac)Phe]-(2-(pNP-thionocarbamate)methyl)ethylamino trifluoroacetate
step yield ([1]; coupling step, from 7, trifluoroacetate): 91% yield

Source: PMC12569658 (JACS Au, 2025)
